Some of the results follow. Most values lie at the level of the controls, where differences are scatter.
The targets below were run with Cc1nc(Nc2ncc(C(=O)Nc3c(C)cccc3Cl)s2)cc(N2CCN(CCO)CC2)n1 [dasatinib] (assay: log2 fold change of tryptic peptide abundance, ligand vs vehicle (limited proteolysis) (log2 ratio); higher = more trypsin-susceptible (destabilized)). Settings: ligand concentration: 5 uM; sample: K562 cleared lysate.

By UniProt entry, the sequences of proteins in these tests, tags left out. Where a name states a change or a piece, a line headed by the entry shows the natural chain unless it says otherwise.
UniProt P29692: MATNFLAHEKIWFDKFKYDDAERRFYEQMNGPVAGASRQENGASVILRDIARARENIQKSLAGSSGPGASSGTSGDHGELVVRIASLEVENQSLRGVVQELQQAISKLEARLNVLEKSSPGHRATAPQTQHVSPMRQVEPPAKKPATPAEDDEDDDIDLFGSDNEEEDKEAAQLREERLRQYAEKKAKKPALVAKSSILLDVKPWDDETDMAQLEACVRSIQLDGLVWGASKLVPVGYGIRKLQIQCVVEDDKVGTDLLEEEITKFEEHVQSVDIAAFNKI
UniProt P36543, whole entry: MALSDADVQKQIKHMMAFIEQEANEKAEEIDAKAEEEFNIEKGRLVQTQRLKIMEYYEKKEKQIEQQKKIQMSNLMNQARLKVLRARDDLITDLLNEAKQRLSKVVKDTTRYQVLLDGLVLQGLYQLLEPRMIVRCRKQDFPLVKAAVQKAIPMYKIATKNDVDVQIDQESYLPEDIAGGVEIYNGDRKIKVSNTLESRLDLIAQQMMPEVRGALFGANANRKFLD
UniProt P43365, whole entry: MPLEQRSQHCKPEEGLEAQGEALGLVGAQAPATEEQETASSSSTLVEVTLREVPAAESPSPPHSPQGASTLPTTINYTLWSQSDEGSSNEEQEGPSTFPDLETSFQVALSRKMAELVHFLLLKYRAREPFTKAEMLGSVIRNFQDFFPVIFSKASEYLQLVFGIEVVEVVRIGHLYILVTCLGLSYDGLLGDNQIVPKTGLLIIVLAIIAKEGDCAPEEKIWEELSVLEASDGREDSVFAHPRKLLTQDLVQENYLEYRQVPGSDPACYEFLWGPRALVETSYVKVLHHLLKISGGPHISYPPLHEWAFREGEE
UniProt P42285: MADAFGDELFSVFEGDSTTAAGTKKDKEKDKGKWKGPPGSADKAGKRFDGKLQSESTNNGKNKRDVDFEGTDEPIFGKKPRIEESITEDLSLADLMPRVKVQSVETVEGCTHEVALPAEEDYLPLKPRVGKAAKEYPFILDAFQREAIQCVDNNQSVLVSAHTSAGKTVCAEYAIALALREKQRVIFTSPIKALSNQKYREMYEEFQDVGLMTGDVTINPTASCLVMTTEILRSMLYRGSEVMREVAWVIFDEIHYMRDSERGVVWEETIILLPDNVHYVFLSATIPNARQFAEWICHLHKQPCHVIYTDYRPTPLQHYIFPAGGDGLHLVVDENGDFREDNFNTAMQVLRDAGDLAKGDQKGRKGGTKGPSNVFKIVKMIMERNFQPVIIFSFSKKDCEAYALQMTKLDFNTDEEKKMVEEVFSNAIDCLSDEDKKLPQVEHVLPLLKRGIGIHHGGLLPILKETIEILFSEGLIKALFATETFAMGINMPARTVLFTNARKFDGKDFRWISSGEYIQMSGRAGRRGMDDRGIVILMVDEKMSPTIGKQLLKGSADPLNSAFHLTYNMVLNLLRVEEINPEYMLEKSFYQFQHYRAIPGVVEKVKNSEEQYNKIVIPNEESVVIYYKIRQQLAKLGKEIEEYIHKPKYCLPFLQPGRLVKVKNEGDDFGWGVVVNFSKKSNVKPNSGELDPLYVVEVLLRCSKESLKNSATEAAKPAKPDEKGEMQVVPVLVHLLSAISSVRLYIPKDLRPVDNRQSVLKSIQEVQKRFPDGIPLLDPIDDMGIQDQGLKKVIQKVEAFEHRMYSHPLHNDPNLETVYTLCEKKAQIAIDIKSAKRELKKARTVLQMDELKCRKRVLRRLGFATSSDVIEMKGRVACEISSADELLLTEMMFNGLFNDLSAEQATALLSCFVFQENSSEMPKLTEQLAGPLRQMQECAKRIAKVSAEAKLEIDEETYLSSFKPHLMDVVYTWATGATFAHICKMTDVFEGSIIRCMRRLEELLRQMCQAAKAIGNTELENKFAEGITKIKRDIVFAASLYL
UniProt P35914: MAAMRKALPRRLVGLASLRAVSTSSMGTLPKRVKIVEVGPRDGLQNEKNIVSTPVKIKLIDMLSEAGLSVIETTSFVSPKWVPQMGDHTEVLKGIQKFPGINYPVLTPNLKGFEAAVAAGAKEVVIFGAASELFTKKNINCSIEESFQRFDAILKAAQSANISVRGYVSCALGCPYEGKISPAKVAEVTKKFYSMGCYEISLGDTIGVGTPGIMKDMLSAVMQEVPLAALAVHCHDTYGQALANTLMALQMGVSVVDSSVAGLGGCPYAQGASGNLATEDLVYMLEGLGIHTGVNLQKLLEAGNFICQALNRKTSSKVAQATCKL
UniProt P30307: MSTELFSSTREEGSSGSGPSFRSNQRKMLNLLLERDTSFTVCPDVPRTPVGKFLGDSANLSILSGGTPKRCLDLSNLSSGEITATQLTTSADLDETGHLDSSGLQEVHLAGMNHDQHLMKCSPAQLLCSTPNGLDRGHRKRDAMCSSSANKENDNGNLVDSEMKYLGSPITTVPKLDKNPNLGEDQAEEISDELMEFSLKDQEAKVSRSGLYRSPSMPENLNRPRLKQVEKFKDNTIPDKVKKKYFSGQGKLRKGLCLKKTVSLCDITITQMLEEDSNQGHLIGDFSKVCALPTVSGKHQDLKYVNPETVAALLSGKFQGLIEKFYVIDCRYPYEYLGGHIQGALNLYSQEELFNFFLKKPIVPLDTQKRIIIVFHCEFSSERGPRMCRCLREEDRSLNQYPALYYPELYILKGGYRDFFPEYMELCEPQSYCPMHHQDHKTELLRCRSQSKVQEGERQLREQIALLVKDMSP
UniProt P29536: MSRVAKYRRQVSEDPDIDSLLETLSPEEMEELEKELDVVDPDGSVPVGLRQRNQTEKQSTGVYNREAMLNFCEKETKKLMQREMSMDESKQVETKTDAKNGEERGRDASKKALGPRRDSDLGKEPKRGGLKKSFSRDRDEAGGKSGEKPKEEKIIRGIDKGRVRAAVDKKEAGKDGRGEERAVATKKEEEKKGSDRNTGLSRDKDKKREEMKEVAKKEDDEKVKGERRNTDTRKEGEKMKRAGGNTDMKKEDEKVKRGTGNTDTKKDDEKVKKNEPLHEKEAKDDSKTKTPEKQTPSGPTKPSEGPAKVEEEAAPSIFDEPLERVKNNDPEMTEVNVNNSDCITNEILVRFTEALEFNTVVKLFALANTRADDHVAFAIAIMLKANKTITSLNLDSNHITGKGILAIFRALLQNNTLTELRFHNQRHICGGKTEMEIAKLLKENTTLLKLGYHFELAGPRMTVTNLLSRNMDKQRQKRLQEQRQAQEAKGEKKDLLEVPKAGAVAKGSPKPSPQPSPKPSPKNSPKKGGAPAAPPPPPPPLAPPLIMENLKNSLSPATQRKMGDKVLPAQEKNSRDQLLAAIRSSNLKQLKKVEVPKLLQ
UniProt P31949: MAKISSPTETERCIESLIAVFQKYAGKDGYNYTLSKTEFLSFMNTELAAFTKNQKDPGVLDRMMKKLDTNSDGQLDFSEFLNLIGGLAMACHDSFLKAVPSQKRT
UniProt P35790, whole entry, looked up: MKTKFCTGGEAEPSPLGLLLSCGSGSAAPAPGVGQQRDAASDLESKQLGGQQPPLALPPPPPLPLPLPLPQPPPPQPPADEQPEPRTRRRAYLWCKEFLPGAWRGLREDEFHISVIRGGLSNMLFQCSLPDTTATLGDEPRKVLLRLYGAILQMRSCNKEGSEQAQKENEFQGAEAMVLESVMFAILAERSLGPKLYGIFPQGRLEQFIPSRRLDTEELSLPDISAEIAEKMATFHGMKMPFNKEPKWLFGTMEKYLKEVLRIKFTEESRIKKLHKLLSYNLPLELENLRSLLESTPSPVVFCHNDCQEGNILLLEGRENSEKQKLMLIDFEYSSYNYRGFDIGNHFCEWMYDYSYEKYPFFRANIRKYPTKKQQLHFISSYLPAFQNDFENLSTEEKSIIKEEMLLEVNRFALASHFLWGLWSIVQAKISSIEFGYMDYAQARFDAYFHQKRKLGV
UniProt P29372, whole entry: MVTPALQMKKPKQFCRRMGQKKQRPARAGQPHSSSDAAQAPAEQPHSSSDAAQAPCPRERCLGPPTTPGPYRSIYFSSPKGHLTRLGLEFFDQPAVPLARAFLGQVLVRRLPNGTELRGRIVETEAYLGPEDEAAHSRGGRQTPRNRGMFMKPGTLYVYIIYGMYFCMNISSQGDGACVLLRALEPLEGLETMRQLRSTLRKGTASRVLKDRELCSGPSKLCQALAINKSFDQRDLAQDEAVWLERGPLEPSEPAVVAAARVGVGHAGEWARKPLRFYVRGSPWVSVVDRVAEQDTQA
UniProt P35222, whole entry: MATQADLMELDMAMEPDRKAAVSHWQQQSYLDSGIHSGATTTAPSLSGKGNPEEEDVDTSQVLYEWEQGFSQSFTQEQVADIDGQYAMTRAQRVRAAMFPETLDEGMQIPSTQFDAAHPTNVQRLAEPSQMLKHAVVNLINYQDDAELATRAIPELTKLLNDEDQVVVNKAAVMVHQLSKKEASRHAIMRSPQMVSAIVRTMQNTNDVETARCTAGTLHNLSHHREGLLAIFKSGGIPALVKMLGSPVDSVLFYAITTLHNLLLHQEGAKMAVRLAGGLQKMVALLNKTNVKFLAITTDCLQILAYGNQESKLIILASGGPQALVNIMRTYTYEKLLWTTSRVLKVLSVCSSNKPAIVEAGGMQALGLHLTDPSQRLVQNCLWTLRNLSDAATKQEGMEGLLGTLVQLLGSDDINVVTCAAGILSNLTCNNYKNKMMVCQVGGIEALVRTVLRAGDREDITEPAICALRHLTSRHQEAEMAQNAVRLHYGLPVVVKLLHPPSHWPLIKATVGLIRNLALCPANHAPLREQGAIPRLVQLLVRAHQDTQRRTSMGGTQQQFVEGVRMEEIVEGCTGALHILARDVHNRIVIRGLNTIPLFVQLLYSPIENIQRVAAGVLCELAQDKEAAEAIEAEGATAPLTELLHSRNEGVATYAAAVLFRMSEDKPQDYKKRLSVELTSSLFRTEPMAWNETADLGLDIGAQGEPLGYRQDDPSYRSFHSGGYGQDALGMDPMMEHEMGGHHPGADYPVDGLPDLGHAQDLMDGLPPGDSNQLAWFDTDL
UniProt P35270: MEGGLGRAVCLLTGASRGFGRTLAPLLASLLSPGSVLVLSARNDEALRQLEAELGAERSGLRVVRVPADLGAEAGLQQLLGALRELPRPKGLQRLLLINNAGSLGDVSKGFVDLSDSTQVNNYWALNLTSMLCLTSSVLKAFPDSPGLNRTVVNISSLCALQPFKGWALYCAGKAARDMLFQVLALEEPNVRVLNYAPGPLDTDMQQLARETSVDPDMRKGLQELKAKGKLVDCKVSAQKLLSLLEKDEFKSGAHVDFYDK
UniProt P43490: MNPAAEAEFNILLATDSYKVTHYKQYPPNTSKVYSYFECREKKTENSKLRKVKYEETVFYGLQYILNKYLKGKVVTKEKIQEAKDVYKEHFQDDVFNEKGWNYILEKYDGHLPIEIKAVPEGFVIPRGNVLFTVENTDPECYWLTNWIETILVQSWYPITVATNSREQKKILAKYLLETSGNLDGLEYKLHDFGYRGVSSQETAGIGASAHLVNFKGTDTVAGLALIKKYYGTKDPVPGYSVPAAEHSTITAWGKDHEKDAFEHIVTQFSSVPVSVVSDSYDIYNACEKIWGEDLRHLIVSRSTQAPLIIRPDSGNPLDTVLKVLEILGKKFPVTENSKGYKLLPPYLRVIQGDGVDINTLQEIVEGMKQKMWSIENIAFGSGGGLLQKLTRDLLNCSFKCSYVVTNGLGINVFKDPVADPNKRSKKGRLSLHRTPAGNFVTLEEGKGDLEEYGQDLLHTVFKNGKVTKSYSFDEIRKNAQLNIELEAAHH
UniProt P33240: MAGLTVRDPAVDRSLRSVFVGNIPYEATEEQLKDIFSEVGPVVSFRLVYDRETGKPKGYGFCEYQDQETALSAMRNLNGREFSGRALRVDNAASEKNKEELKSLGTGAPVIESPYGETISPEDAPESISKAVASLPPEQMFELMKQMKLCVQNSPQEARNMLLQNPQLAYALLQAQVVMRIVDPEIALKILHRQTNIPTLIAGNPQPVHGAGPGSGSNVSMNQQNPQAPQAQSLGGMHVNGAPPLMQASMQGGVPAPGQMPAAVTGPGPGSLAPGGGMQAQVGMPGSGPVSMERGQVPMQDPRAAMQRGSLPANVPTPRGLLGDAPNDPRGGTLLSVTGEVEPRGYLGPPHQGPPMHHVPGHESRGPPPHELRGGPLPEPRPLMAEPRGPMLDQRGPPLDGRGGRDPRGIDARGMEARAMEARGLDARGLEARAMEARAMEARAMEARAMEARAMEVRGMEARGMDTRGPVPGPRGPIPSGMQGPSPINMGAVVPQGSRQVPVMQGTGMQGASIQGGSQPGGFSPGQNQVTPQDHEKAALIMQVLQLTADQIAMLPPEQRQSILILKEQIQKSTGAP
UniProt P40926: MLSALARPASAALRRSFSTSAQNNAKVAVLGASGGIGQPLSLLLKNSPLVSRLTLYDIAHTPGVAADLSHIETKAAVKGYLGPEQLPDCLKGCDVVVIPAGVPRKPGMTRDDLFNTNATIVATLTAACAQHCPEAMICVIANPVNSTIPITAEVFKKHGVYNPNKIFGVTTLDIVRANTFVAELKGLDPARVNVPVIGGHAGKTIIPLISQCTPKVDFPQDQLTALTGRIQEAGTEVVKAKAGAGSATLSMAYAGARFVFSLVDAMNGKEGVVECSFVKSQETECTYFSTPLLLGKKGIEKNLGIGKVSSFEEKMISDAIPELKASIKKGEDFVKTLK

Target	log2 fold change
EEF1D (peptide sequence: ATNFLAHEKIWFDK, peptide start residue: 2) (UniProt P29692)	-0.35
ATP6V1E1 (peptide sequence: ARDDLITDLLNEAK, peptide start residue: 86) (UniProt P36543)	-0.239
LRPPRC (peptide sequence: FSPTDFLAK, peptide start residue: 179) (UniProt P42704)	0.0821
MYH9 (peptide sequence: QLEEAEEEAQRANASRR, peptide start residue: 1878) (UniProt P35579)	-1.01
CORO1A (peptide sequence: DGGLICTSCR, peptide start residue: 187) (UniProt P31146)	0.604
MAGEA12 (peptide sequence: KMAELVHFLLLK, peptide start residue: 112) (UniProt P43365)	0.277
UniProt P42285 (peptide sequence: NSATEAAKPAKPDEK, peptide start residue: 709)	-0.449
RFC5 (peptide sequence: YRPQTLNDLISHQDILSTIQK, peptide start residue: 26) (UniProt P40937)	-0.206
HMGCL (peptide sequence: VAQATCKL, peptide start residue: 318) (UniProt P35914)	0.067
ZNF93 (peptide sequence: AFHLSTHLTTHK, peptide start residue: 545) (UniProt P35789)	1.29
WAS (peptide sequence: ADIGAPSGFK, peptide start residue: 236) (UniProt P42768)	0.134
CDC25C (peptide sequence: FKDNTIPDKVK, peptide start residue: 232) (UniProt P30307)	-0.0871
UniProt P29536 (peptide sequence: MTVTNLLSR, peptide start residue: 461)	-0.0943
SRI (peptide sequence: ALTTMGFR, peptide start residue: 128) (UniProt P30626)	0.0605
EIF2S3 (peptide sequence: VGQEIEVRPGIVSKDSEGK, peptide start residue: 290) (UniProt P41091)	-0.543
SOX6 (peptide sequence: QQMDLAR, peptide start residue: 225) (UniProt P35712)	0.398
RBMX (peptide sequence: DYGHSSSR, peptide start residue: 245) (UniProt P38159)	0.106
S100A11 (peptide sequence: DGYNYTLSK, peptide start residue: 28) (UniProt P31949)	0.0373
DUT (peptide sequence: AAQHGIPRPLSSAGR, peptide start residue: 48) (UniProt P33316)	-0.374
CHKA (peptide sequence: LYGIFPQGR, peptide start residue: 196) (UniProt P35790)	0.321
MPG (peptide sequence: VGVGHAGEWAR, peptide start residue: 262) (UniProt P29372)	-0.24
CTNNB1 (peptide sequence: LAEPSQMLK, peptide start residue: 125) (UniProt P35222)	-0.15
UniProt P41214 (peptide sequence: GLNQDSTDSK, peptide start residue: 249)	0.187
CA8 (peptide sequence: DCEVTNDGHTIQVILK, peptide start residue: 79) (UniProt P35219)	0.134
SPR (peptide sequence: SGAHVDFYDK, peptide start residue: 252) (UniProt P35270)	-0.132
NAMPT (peptide sequence: GVSSQETAGIGASAHLVNFK, peptide start residue: 197) (UniProt P43490)	0.317
CSTF2 (peptide sequence: AGLTVRDPAVDR, peptide start residue: 2) (UniProt P33240)	-0.0974
MDH2 (peptide sequence: IFGVTTLDIVR, peptide start residue: 166) (UniProt P40926)	-0.251

Part of the list above, as comma-separated lines.
Target,log2 fold change
"CTNNB1 (peptide sequence: LAEPSQMLK, peptide start residue: 125) (UniProt P35222)",-0.15
"UniProt P41214 (peptide sequence: GLNQDSTDSK, peptide start residue: 249)",0.187

From the supplement of paper PMC12819154, “High-throughput peptide-centric local stability assay extends protein–ligand identification to membrane proteins, tissues and bacteria” (Nature Structural & Molecular Biology, 2025)
